Measured values as given in PMC8789201.
These are yes or no findings as the source states them, for the method shown. In cells and extracts the contact can be indirect. A yes stands for co-enrichment or nearness to the bait. Other partners may have been found. For some of these results: No binding means not detected with the bait. For some of these results: Where a sequence is shown, tags or fusion partners need not be part of it.

Chains of the proteins cited; added tags and fusions are not shown.
UniProt P63104: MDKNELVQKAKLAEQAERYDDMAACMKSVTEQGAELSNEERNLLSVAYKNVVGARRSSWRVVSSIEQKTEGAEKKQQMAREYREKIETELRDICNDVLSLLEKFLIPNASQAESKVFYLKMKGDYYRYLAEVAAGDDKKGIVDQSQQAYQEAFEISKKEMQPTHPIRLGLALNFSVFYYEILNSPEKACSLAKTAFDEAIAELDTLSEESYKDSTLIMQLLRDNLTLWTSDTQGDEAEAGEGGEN

How the values were obtained:
[1] = target: T1, OST-tagged SLP76 (SLP-76^OST) (human) (UniProt Q13094); assay: affinity purification with mass spectrometry; SLP-76^OST CD4+ T cells preincubated 45 min at 37°C with dasatinib (100 nM), kept until lysis; stimulated with anti-CD3 plus anti-CD28; Strep-Tactin purification, LC-MS/MS; vehicle (DMSO) in parallel
T1 sequence: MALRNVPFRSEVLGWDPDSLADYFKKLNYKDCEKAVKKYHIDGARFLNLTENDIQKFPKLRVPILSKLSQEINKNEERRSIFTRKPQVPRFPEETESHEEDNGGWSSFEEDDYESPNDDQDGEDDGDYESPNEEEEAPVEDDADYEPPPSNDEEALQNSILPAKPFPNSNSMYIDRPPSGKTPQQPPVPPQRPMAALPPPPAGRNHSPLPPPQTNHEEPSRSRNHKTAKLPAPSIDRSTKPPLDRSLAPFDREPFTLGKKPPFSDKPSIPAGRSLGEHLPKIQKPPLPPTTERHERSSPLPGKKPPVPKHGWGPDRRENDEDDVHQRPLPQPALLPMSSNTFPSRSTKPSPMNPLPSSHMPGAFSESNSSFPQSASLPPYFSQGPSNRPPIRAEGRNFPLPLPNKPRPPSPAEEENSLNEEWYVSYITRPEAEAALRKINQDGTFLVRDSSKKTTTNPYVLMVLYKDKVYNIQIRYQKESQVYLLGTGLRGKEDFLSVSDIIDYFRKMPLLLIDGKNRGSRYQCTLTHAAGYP

[2] = target: T1, OST-tagged SLP76 (SLP-76^OST) (human); assay: affinity purification with mass spectrometry; OST-tagged bait in n-dodecyl-β-D-maltoside lysates of expanded primary human CD8+ T cells, unstimulated or stimulated with anti-CD3 plus anti-CD28 for 30, 60, 120 and 300 s; captured on Strep-Tactin Sepharose, eluted with D-biotin, LC-MS/MS; compared with control cells
[3] = target: T1, OST-tagged SLP76 (SLP-76^OST) (human); assay: affinity purification with mass spectrometry; OST-tagged bait in n-dodecyl-β-D-maltoside lysates of expanded primary human CD4+ T cells, unstimulated or stimulated with anti-CD3 plus anti-CD28 for 30, 60, 120 and 300 s; captured on Strep-Tactin Sepharose 1.5 h at 4°C, eluted with 2.5 mM D-biotin, LC-MS/MS; compared with mock-edited control cells
[4] = target: T2, VAV1^OST (human) (UniProt P15498); assay: as above
T2 sequence: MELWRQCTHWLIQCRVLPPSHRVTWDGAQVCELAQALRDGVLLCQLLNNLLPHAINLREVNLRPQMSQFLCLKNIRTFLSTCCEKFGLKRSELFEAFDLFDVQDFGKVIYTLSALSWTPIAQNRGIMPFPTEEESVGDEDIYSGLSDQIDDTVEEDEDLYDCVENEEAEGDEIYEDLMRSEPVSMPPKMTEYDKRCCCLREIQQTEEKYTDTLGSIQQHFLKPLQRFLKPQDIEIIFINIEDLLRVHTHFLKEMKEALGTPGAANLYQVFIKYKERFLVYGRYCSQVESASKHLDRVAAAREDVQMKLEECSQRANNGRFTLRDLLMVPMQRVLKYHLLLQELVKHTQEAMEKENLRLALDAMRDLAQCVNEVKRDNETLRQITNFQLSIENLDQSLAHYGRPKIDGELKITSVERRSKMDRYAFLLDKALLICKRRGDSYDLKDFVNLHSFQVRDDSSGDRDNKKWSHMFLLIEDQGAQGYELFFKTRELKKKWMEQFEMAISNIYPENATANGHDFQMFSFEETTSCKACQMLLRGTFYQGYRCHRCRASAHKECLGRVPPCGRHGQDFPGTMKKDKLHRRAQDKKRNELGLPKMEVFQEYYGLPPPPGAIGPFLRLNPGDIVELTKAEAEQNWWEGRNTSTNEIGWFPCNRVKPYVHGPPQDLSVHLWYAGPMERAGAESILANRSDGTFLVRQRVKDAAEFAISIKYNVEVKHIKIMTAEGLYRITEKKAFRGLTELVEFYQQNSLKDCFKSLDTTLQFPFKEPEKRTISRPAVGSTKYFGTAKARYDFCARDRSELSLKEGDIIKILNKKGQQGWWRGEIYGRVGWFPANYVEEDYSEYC

14-3-3 ζ (from UniProt P63104 1-245)
binding [1]: no binding (only with dasatinib (100 nM))
binding [2]: binds
binding [3]: binds

B1: SLP-76, endogenous (protein, UniProt Q13094 1-533)
chain: T1 sequence
binding [4]: binds

B2: VAV1, endogenous (protein, UniProt P15498 1-845)
chain: T2 sequence
binding [1]: no binding (only with dasatinib (100 nM))
binding [2]: binds
binding [3]: binds

B3: transmembrane receptor CD6 (receptor, UniProt P30203 18-668)
chain: HPSPAPPDQLNTSSAESELWEPGERLPVRLTNGSSSCSGTVEVRLEASWEPACGALWDSRAAEAVCRALGCGGAEAASQLAPPTPELPPPPAAGNTSVAANATLAGAPALLCSGAEWRLCEVVEHACRSDGRRARVTCAENRALRLVDGGGACAGRVEMLEHGEWGSVCDDTWDLEDAHVVCRQLGCGWAVQALPGLHFTPGRGPIHRDQVNCSGAEAYLWDCPGLPGQHYCGHKEDAGAVCSEHQSWRLTGGADRCEGQVEVHFRGVWNTVCDSEWYPSEAKVLCQSLGCGTAVERPKGLPHSLSGRMYYSCNGEELTLSNCSWRFNNSNLCSQSLAARVLCSASRSLHNLSTPEVPASVQTVTIESSVTVKIENKESRELMLLIPSIVLGILLLGSLIFIAFILLRIKGKYALPVMVNHQHLPTTIPAGSNSYQPVPITIPKEVFMLPIQVQAPPPEDSDSGSDSDYEHYDFSAQPPVALTTFYNSQRHRVTDEEVQQSRFQMPPLEEGLEELHASHIPTANPGHCITDPPSLGPQYHPRSNSESSTSSGEDYCNSPKSKLPPWNPQVFSSERSSFLEQPPNLELAGTQPAFSAGPPADDSSSTSSGEWYQNFQPPPQPPSEEQFGCPGSPSPQPDSTDNDDYDDISAA
binding [1]: no binding (only with dasatinib (100 nM))
binding [2]: binds
binding [3]: binds
